Measured values as given in US12492356B2, “Oxa-sandalwood-type fragrance compounds” (SYMRISE AG, priority 2020, dated 2025).

Legend:
[1] = Odor description (olfactory evaluation)
[2] = Tenacity on blotting-paper substrate (time until the odor can no longer be detected)
Excerpt: Tenacity (the so-called lasting effect), a secondary but indeed important property of fragrance compounds, which is also known as adsorptive capacity, describes a compound's ability to adhere to a substrate. Therefore, tenacity describes the ability of a perfume to last, or a fragrance note to retain its characteristic odor. Tenacity thus typically refers to the long-term effectiveness of the fragrance in a perfumed product such as when applied on the skin after use e.g. of a shower gel/toilet soap/deodorant. […] Substantivity describes the ability of a substance to be adsorbed from a usually aqueous phase onto a substrate or also its ability to remain on a substrate after a washing or rinsing operation. This effect is in particular manifested on substrates such as skin, hair and textile fibers (for example cotton, linen, wool and/or synthetic fibers). Tenacity is measured over a defined period of time and refers to samples adhered to a blotting-paper substrate in a defined amount, concentration, temperature and humidity and which are tested by a single member or a panel of experts. The tenacity refers to the time until which the odor can no longer be detected. Initially, for the first day the tenacity is measured hourly, thereafter in days.

For `COCC1=CCC(CCO)C1(C)C` (stereo not shown) [Compound D, 2-[3-(Methoxymethyl)-2,2-dimethyl-cyclopent-3-en-1-yl]-ethanol], the Odor description [1] was “fresh, woody, fruity and citrus”.

In the case of `C=C(CC(C)CO)C1CC=C(COC)C1(C)C` (stereo not shown) [Compound 4, 4-[3-(Methoxymethyl)-2,2-dimethyl-cyclopent-3-en-1-yl]-2-methyl-pent-4-en-1-ol], the Odor description [1] is reported as “woody, sandal, creamy”.

For `COCC12CC1CC(CC1CC1(C)C(C)O)C2(C)C` (stereo not shown) [Compound 8, 1-[2-[[1-(methoxymethyl)-2,2-dimethyl-3-bicyclo[3.1.0]hexanyl]methyl]-1-methyl-cyclopropyl]ethanol], the Odor description [1] was “creamy, blooming, sweet”.

For `COCC1CCC(C/C=C(\C)CO)C1(C)C` (stereo not shown) [Compound 5, 4-[3-(Methoxymethyl)-2,2-dimethyl-cyclo-pentyl]-2-methyl-but-2-en-1-ol], the Odor description [1] was “woody, weaker than compound 3”.

With `COCC1=CCC(C/C=C(\C)CO)C1(C)C` (stereo not shown) [Compound 1, 4-[3-(Methoxymethyl)-2,2-dimethyl-cyclopent-3-en-1-yl]-2-methyl-but-2-en-1-ol] the Tenacity [2] was 55 days and the Odor description [1] was “sandal, woody”.

In the case of `C=C(CO)C1CC=C(COC)C1(C)C` (stereo not shown) [2-[3-(methoxymethyl)-2,2-dimethyl-cyclopent-3-en-1-yl]prop-2-en-1-ol], the Odor description [1] is reported as “fresh, fruity, weak”.

For `COCC12CC1CC(CC=O)C2(C)C` (stereo not shown) [Compound A, 2-[1-(Methoxymethyl)-2,2-dimethyl-3-bicyclo[3.1.0]hexan-yl]acetaldehyde], the Odor description [1] was “camphor, pine, raspberry, spicy, heliotropin”.

For `CC/C(=C\CC1CC=C(COC)C1(C)C)CO` (stereo not shown) [Compound 3, 2-Ethyl-4-[3-(methoxymethyl)-2,2-dimethyl-cyclopent-3-en-1-yl]but-2-en-1-ol], the Tenacity [2] was 22 days and the Odor description [1] was “sandal, woody, creamy”.

With `COCC12CC1CC(C/C=C(\C)CO)C2(C)C` (stereo not shown) [Compound 6, 4-[1-(Methoxymethyl)-2,2-dimethyl-3-bicyclo[3.1.0]hexan-yl]-2-methyl-but-2-en-1-ol] the Odor description [1] was “woody, weaker than compound 3”.

With `COCC1=CCC(CC=O)C1(C)C` (stereo not shown) [Compound C, 2-[3-(Methoxymethyl)-2,2-dimethyl-cyclopent-3-en-1-yl]-acetaldehyde] the Odor description [1] was “aldehydic, milky, almondy, pistachio, edible”.

With `CC/C(=C\CC1CC2CC2(COC)C1(C)C)CO` (stereo not shown) [Compound 7, 2-Ethyl-4-[1-(methoxymethyl)-2,2-dimethyl-3-bicyclo[3.1.0]hexanyl]but-2-en-1-ol] the Odor description [1] was “woody, weaker than compound 3”.

With `COCC1=CCC(CCC(C)CO)C1(C)C` (stereo not shown) [Compound 2, 4-[3-(Methoxymethyl)-2,2-dimethyl-cyclopent-3-en-1-yl]-2-methyl-butan-1-ol] the Tenacity [2] was 25 days and the Odor description [1] was “sandal, woody, creamy”.

In the case of `COCC1CCC(CC=O)C1(C)C` (stereo not shown) [Compound B, 2-[3-(Methoxymethyl)-2,2-dimethyl-cyclopentyl]acetaldehyde], the Odor description [1] is reported as “herbal, sorrel, green”.

Some compounds share one wording; it may come from a single statement.
